These are yes or no findings as the source states them, for the method shown.
Molecular target: mCherry-PIF6 (N-terminal Cys residue) (A. thaliana) (UniProt Q8L5W7)
Assay: SEC

binding: no binding
Substance: mCherry-PIF6 (N-terminal Cys residue) (from UniProt Q8L5W7 1-100)

— publication doi:10.1101/2023.04.04.535523
